Data as given in PubChem BioAssay AID686938 (Drosophila RNAi Screening Center, 2013).
The screen tested about 23,000 reagents; this is a random part of those that have a named target and a result. Over the whole deposit, 75 (0.33%) are marked active. 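Raw plate signals without normalisation; calls rest on plate z-scores that were not deposited; ratio present for only 364 wells.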 A number with no mark means an inactive call. Reagents against one gene are numbered here. Names joined by + are all predicted targets of the reagent. Not given: the dose of the treatment.

Assay: 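Knock-downs reducing store-operated calcium influx in Drosophila cells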 (primary screen)
Cell system: Drosophila S2R+ cells
Reagents: long dsRNA against Drosophila genes, about 0.25 µg dsRNA per well, roughly 10,000 cells
Timing: 5 days of knock-down before the calcium assay
Treatment: thapsigargin (SERCA pump blocker) to empty calcium stores; entry signal taken 4 min after adding it
Detection: 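Duplicate raw fluo-4 intensities per well from a plate reader, at rest and four minutes after thapsigargin emptied calcium stores; entry-to-rest ratio filled for only some wells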
Direction: calcium entry signal: higher = stronger calcium signal after store depletion; entry to resting ratio: higher = more calcium entry relative to resting level; resting calcium signal: higher = higher resting calcium signal
Call rule: 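Hit if the duplicate-averaged plate z-score for entry over resting signal is under −3; wells with weak total dye signal (Fmax z < −2) or more than 5 off-targets removed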
Calls: active = strongly reduced calcium entry; inactive = no strong reduction

| gene | dsRNA no. | calcium entry signal, replicate 1 (fluorescence units) | calcium entry signal, replicate 2 (fluorescence units) | entry to resting ratio | resting calcium signal, replicate 1 (fluorescence units) | resting calcium signal, replicate 2 (fluorescence units) |
| --- | --- | --- | --- | --- | --- | --- |
| speck | 1 | 4.29e7 | – | – | 2.23e7 | – |
| zuc | 1 | 4.15e7 | – | – | 1.92e7 | – |
| robo2 | 1 | 3.18e7 | 3.49e7 | – | 1.59e7 | 1.76e7 |
| robo2 | 2 | 3.54e7 | 3.59e7 | – | 1.66e7 | 1.74e7 |
| robo2 | 3 | 3.37e7 | 3.92e7 | – | 1.64e7 | 1.82e7 |
| robo2 | 4 | 5.42e7 | – | – | 3.00e7 | – |
| Cpr92A | 1 | 4.08e7 | 4.83e7 | – | 5.33e7 | 2.00e7 |
| CG43219 | 1 | 2.71e7 | 4.55e7 | – | 1.43e7 | 2.07e7 |
| Mes2 | 1 | 2.47e7 | 3.65e7 | – | 1.39e7 | 1.62e7 |
| Mes2 | 2 | 3.61e7 | 2.72e7 | – | 1.67e7 | 1.44e7 |
| Det | 1 | 3.06e7 | 5.21e7 | – | 1.61e7 | 6.95e7 |
| GNBP1 | 1 | 3.53e7 | 4.83e7 | – | 1.72e7 | 1.98e7 |
| GNBP1 | 2 | 1.75e7 | 6.37e7 | – | 1.03e7 | 2.61e7 |
| Idgf2 | 1 | 3.66e7 | – | – | 1.95e7 | – |
| CG7488 | 1 | 2.38e7 | 2.68e7 | – | 1.21e7 | 4.09e7 |
| ng3 | 1 | 5.93e7 | 5.74e7 | 2 | 2.94e7 | 2.56e7 |
| CkIIbeta | 1 | 3.44e7 | 4.66e7 | – | 1.77e7 | 2.49e7 |
| Cyp4ae1 | 1 | 2.66e7 | 4.00e7 | – | 1.23e7 | 1.92e7 |
| Cyp309a1 | 1 | 3.70e7 | 3.36e7 | – | 1.69e7 | 1.48e7 |
| kri | 1 | 3.37e7 | 2.55e7 | – | 2.39e7 | 1.21e7 |
| CG33235 | 1 | 3.41e7 | 5.36e7 | – | 1.66e7 | 2.53e7 |
| CG7497 | 1 | 3.21e7 | 3.84e7 | – | 1.42e7 | 2.61e7 |
| Cyt-b5 | 1 | 2.91e7 | 2.43e7 | – | 1.25e7 | 1.22e7 |
| mxc | 1 | 2.15e7 | 2.11e7 | – | 1.18e7 | 1.10e7 |
| Fpgs1 | 1 | 2.62e7 | 3.42e7 | – | 1.39e7 | 1.79e7 |
| CG6051 | 1 | 4.06e7 | 4.89e7 | – | 2.07e7 | 2.25e7 |
| Hers + amn | 1 | 4.68e7 | 3.46e7 | – | 2.29e7 | 1.54e7 |
| sona | 1 | 3.86e7 | 4.91e7 | – | 1.83e7 | 2.26e7 |
| sona | 2 | 4.13e7 | 4.76e7 | – | 2.07e7 | 2.27e7 |
| sona | 3 | 3.94e7 | 4.48e7 | – | 2.07e7 | 2.15e7 |

Next part (5 carried over from the part before).
| gene | dsRNA no. | calcium entry signal, replicate 1 (fluorescence units) | calcium entry signal, replicate 2 (fluorescence units) | entry to resting ratio | resting calcium signal, replicate 1 (fluorescence units) | resting calcium signal, replicate 2 (fluorescence units) |
| --- | --- | --- | --- | --- | --- | --- |
| CG6051 | 1 | 4.06e7 | 4.89e7 | – | 2.07e7 | 2.25e7 |
| Hers + amn | 1 | 4.68e7 | 3.46e7 | – | 2.29e7 | 1.54e7 |
| sona | 1 | 3.86e7 | 4.91e7 | – | 1.83e7 | 2.26e7 |
| sona | 2 | 4.13e7 | 4.76e7 | – | 2.07e7 | 2.27e7 |
| sona | 3 | 3.94e7 | 4.48e7 | – | 2.07e7 | 2.15e7 |
| UQCR-Q | 1 | 3.93e7 | 5.91e7 | – | 1.75e7 | 2.40e7 |
| plu | 1 | 5.46e7 | 5.36e7 | – | 2.45e7 | 2.64e7 |
| CG8850 | 1 | 2.90e7 | 3.46e7 | – | 1.49e7 | 1.45e7 |
| SecS | 1 | 4.76e7 | 3.31e7 | – | 2.33e7 | 1.58e7 |
| CG9917 | 1 | 3.78e7 | 4.41e7 | – | 1.79e7 | 2.12e7 |
| CG43341 | 1 | 2.48e7 | 3.31e7 | – | 1.18e7 | 1.53e7 |
| Cyp6w1 | 1 | 3.89e7 | – | – | 1.93e7 | – |
| CG8708 | 1 | 4.01e7 | 3.32e7 | – | 1.55e7 | 1.60e7 |
| CG2617 | 1 | 5.07e7 | 5.95e7 | – | 2.51e7 | 2.52e7 |
| CG14036 | 1 | 3.65e7 | 3.57e7 | – | 1.80e7 | 1.69e7 |
| Atg17 | 1 | 4.42e7 | 4.12e7 | – | 2.15e7 | 1.95e7 |
| CG34370 | 1 | 3.08e7 | 4.67e7 | – | 1.46e7 | 1.98e7 |
| CG34370 | 2 | 4.43e7 | 4.56e7 | – | 2.04e7 | 1.99e7 |
| CG34370 | 3 | 4.58e7 | 4.68e7 | – | 2.17e7 | 2.02e7 |
| CG34370 | 4 | 4.50e7 | 4.66e7 | – | 1.99e7 | 1.86e7 |
| CG14505 | 1 | 4.75e7 | 5.88e7 | – | 2.12e7 | 2.79e7 |
| Gr9a | 1 | 3.97e7 | 3.08e7 | – | 2.21e7 | 1.56e7 |
| PolQ | 1 | 4.08e7 | 4.44e7 | – | 1.98e7 | 2.14e7 |
| CG6230 | 1 | 4.14e7 | – | – | 1.99e7 | – |
| Cdk2 | 1 | 3.67e7 | 3.46e7 | – | 1.98e7 | 1.71e7 |
| CG31752 | 1 | 3.62e7 | 3.84e7 | – | 2.12e7 | 1.80e7 |
| Alg13 | 1 | 4.35e7 | 2.75e7 | – | 2.17e7 | 1.48e7 |
| Zir | 1 | 4.07e7 | – | – | 1.87e7 | – |
| Rca1 | 1 | 2.53e7 | – | – | 1.80e7 | – |
| mgl | 1 | 3.49e7 | 4.41e7 | – | 1.73e7 | 2.25e7 |
| mgl | 2 | 3.76e7 | 3.64e7 | – | 1.75e7 | 1.76e7 |
| mgl | 3 | 3.90e7 | 5.07e7 | – | 1.93e7 | 2.41e7 |
| mgl | 4 | 4.37e7 | 5.69e7 | – | 1.98e7 | 2.65e7 |
